Laboratory results taken from the supplement of paper PMC12764529.
± gives the half width of the 95% confidence interval. The two proteases of the assay disagree for many of these sequences.

How the values were obtained:
[1] = folding stability dG unfold from chymotrypsin proteolysis; higher = more stable
Experimental: (§1)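 Folding stability of de novo designed mini-proteins (<80 aa, no Cys; designed by TrROS, TrMRF, ProteinMPNN and the joint model) was measured by cDNA display proteolysis with trypsin and chymotrypsin. Each protease was used at 11 concentrations in a threefold dilution series plus a no-protease condition. K50 was inferred by Bayesian fitting of sequencing counts, and dG unfold was derived against a sequence-predicted unfolded-state K50 (Tsuboyama et al. method). Sequences shown include variable-length N-terminal GS-type padding (SAGGSAGG...) inside a display construct carrying a PA tag. Rows were kept only if the AF2 dimer inter-PAE was >15, to exclude likely homo-oligomers.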

[2] = folding stability dG unfold from trypsin proteolysis; higher = more stable
Experimental: as §1

[3] = folding stability dG unfold (combined trypsin and chymotrypsin); higher = more stable
Experimental: as §1

Row | Sequence | folding stability dG unfold [1] | folding stability dG unfold [2] | folding stability dG unfold [3]
1 | SAGGSAGGSSPVVGGTPPVEEVRVVLDLEDPEEAEKAAEEIRERTGYPVEVEIISPEELEEKASAGGSAGGS [r12_766_JUSTAS] | 1.66 ± 0.096 kcal/mol | -0.995 ± 0.33 kcal/mol | 1.1 ± 0.17 kcal/mol
2 | SAGGSAGGSAGGMTLRLKLRLTFTNEDGSTSELELELELEFEPEPVLVRTKDGRTRLLDSAGGSAGGSAGGS [r10_330_TrROS_Hall] | 4.24 ± 0.092 kcal/mol | 1.1 ± 0.13 kcal/mol | 3.63 ± 0.18 kcal/mol
3 | SAGGSAGGSAKKKKKKKKKTEIKTITIPADDLSEEEIKELLSDEEAEKILKNTKPGDTITLSAGGSAGGSAG [r3_326_TrROS_Hall] | – | 1.05 ± 0.11 kcal/mol | 0.363 ± 0.26 kcal/mol
4 | SAGGSAAIQIPIPPGDKRPITFPIYIGNYPFRVDAEINPKEPGYVKQDIENPGDGKEVEETIPLDDSAGGSA [r15_328_TrROS] | – | 1.36 ± 0.074 kcal/mol | 0.56 ± 0.3 kcal/mol
5 | SAGGSAGGSAGGMIPLASVTTERDPNSDNVLVTLTDPSPGAPVTVEVSVEEAEKLIALSSAGGSAGGSAGGS [r10_988_JUSTAS] | – | 1.82 ± 0.062 kcal/mol | 0.916 ± 0.068 kcal/mol
6 | SAGGMKVEITEIEEKDGYIVIRLKVEVEVNGEKYTFEMTLVIKVEPPPPKKVELSEEELLDENGKVVSAGGS [r8_234_TrROS_Hall] | – | 1.92 ± 0.11 kcal/mol | > 6 kcal/mol
7 | SAGGSAGGSAMIVVTLDDPEEAREAVRARFGPEVEITPLETTTVGDRVFTKIAVRVPPELASAGGSAGGSAG [r3_87_JUSTAS] | – | -0.351 ± 0.19 kcal/mol | -0.395 ± 0.24 kcal/mol
8 | SAGGSAGGSDILKELAEEFPITSIEITENGHISVMMQAPKPGYMYEIEIDIEDNKVEIEPYKPSAGGSAGGS [r12_944_TrROS] | – | 1.34 ± 0.15 kcal/mol | 0.605 ± 0.17 kcal/mol
9 | SAGGSAGGSAGGMLAAIIYKEGDEKEIVEFDSVEEVEEKSKELGVEVEIVTKEEAEKLLSAGGSAGGSAGGS [r10_66_TrMRF] | – | 1.26 ± 0.084 kcal/mol | 0.565 ± 0.24 kcal/mol
10 | MLTAEEIRELAEELAKKLRELFPEKDLKVEIEVEVEVEVTRVEYDEETGEETVERERVRLKLTIKIEPKEES [r1_90_TrROS_Hall] | – | 3.32 ± 0.28 kcal/mol | –
11 | NGEIVEVYPITIPLPGYQIEIWIYRMPDDGHYWVTIEIFPYDPNGKPKNPQKITYPFPSLDDIKDFLKDIIS [r1_288_TrROS] | – | 2.94 ± 0.31 kcal/mol | > 6 kcal/mol
12 | SAGGSAGGSSMPLKVTVKDPNNGKEYEATVTETLPDGTVLLTVTTPDGAVKEVTEITDYEVVGSAGGSAGGS [r12_118_JUSTAS] | – | 1.12 ± 0.066 kcal/mol | 0.364 ± 0.09 kcal/mol
13 | SAGGSALIVLEGDLDSVVALAKEAGDPNVKVEPVADFNDDPSEPRLYRITIERDGEPDGELLFLDPSAGGSA [r15_428_TrMRF] | – | -0.0896 ± 0.1 kcal/mol | < -1 kcal/mol
14 | SAGGSAGGSAGSPLPPGVPVVTPTTTVDTSSDLVTVTDVTVTPEPGEVTSTVTVVPASLLSAGGSAGGSAGG [r11_468_JUSTAS] | – | 1.23 ± 0.091 kcal/mol | 0.3 ± 0.22 kcal/mol
15 | SAGGKIKKIELLPKDAKPGAKIIITFEDGSKYEIEAELVKLENGEYYLKLKIKVNGKEIELILKIKPSAGGS [r8_360_TrROS_Hall] | 5.27 ± 0.29 kcal/mol | 2.29 ± 0.38 kcal/mol | –
16 | SAGGMEVKIEITYDEETGTLTVTAEVKLPDGVTVRVTATITPDGTITITVEVTNKDGEKVTKTVTFPSAGGS [r16_733_TrROS_Hall] | – | 4 ± 0.46 kcal/mol | –
17 | SAGGSAGGDRFTIINLHPNPDGQYWIHVHEIEWEPVDGQPRLEIEPRTIRLPGDPEDALDAALDSAGGSAGG [r6_129_TrROS] | 1.07 ± 0.081 kcal/mol | – | 0.277 ± 0.1 kcal/mol
18 | SAGGSAGGEMSEEEKKKLKEEEERLKKLKPKLVIVVKPGMSEEEKELAKELAEKLNVEVEIVVESAGGSAGG [r6_129_TrROS_Hall] | 1.39 ± 0.18 kcal/mol | – | 0.91 ± 0.25 kcal/mol
19 | SAGGSAGGSSATVGAAAPGTVVLTLHGDAPVTITVPPGRLEELARRLRELGADAEVDFAPALGSAGGSAGGS [r20_124_TrMRF] | 1.84 ± 0.029 kcal/mol | – | 1.33 ± 0.06 kcal/mol
20 | SAGGPTRVRATIEFPELGVPVEVTVPADDPDMTPEEALRRLRERARRLAELLRRLLELPPAPPPSPELSAGG [r13_126_TrMRF] | 3.105 ± 0.031 kcal/mol | – | 2.57 ± 0.068 kcal/mol
21 | SMKLIKLKFPGKSLEEVLKAAKELEETGKFEILSINDETEDIYIDIAYKPPKPPKPPKPKVVFDENGKEGSA [r9_830_TrMRF] | 1.86 ± 0.11 kcal/mol | – | 1.03 ± 0.3 kcal/mol
22 | SAGGSAGGSAPDTGSSSFPLDLPEKPVNVTVTSLPENPDLTLITIPGTGEVLVVFPGGEITPLSAGGSAGGS [r12_580_JUSTAS] | – | 1.33 ± 0.075 kcal/mol | 0.558 ± 0.097 kcal/mol
23 | SAGGSAGGSAGGGTSTTRTDPETGVTTTTETTSTPTTTTTTTTLDPATNTATTTTTTTPASAGGSAGGSAGG [r7_760_JUSTAS] | 1.57 ± 0.07 kcal/mol | – | 1.13 ± 0.12 kcal/mol
24 | SAGGSAGGSAGGDEPEDVPVLDIEVDLPPELRNNPELAGEAAVERAKPLEEEGLLGTVASAGGSAGGSAGGS [r10_723_TrMRF] | 1.09 ± 0.035 kcal/mol | – | 0.59 ± 0.11 kcal/mol

Row | Sequence | folding stability dG unfold [1] | folding stability dG unfold [2] | folding stability dG unfold [3]
25 | SAGGSAGGSAGGSLIKRPLKLTVKLTFTDPENPSTPVETTERLDLYVLLEVPPVPPEHPSAGGSAGGSAGGS [r4_231_TrMRF] | 2.807 ± 0.027 kcal/mol | – | 2.04 ± 0.11 kcal/mol
26 | SAGGSAGGSAGGSVEERVEEEVERVRAAHPVEVLPVEVEVEVGDEPVRAEVPVVVPGPGSAGGSAGGSAGGS [r10_1204_JUSTAS] | 1.39 ± 0.063 kcal/mol | – | 0.793 ± 0.097 kcal/mol
27 | SMKVYKTKDGKLVAKPKTLTLEITVPPNTTAEEIAKKIADLLKKLGIKEVKVTVEVNKENKEVKITIEIKSA [r9_1124_TrROS_Hall] | 4.9 ± 0.4 kcal/mol | 1.23 ± 0.24 kcal/mol | –
28 | SAGMEELIKKALELAEELAKALHPSPKPVNFEVKIEPLYIDEENGYAHLKVTIKSENEEHEFEITIKLESAG [r5_53_TrMRF] | – | 3.11 ± 0.32 kcal/mol | > 6 kcal/mol
29 | SAGMKIEIKVEYDEETGTLTVEVKVTLPDGRELTVRITITRTPDKLTITVEVEEGMTVEEILKKLLEELSAG [r5_478_TrROS_Hall] | – | 2.75 ± 0.17 kcal/mol | > 6 kcal/mol
30 | SAGGPAFTVTEVTVTANPEAGTVTVTATFEDGAVATATVDPSTGRVPGRVLLPDALVDFEGTLDVPGSAGGS [r8_363_TrMRF] | 1.46 ± 0.053 kcal/mol | – | 0.959 ± 0.04 kcal/mol
31 | SAGGASLVEHPDGSVIPDVNPRGGLDRITAKRPKSGEIVTRPVPADESFTVPPDEPVEAVDTTDWPGSAGGS [r16_123_JUSTAS] | 1.13 ± 0.019 kcal/mol | – | 0.652 ± 0.069 kcal/mol
32 | SAGGSAGGSASSSVTITNRVTNPDTGLRYITIPSKGERVTLSPDESATIPVPPDAPVSVLGSSAGGSAGGSA [r18_329_JUSTAS] | – | -0.694 ± 0.24 kcal/mol | < -1 kcal/mol
33 | SAGGSAGGDLIDEALENMPPGQEVEIKVEAYLPDGMPGEDEIEVKVEPPKPPPSPEDRKERKDQSAGGSAGG [r6_893_TrROS] | 1.34 ± 0.1 kcal/mol | – | 0.667 ± 0.39 kcal/mol
34 | SAGGSPVIRGPTLEDALEAARALAAALREAFPDRPDLVVEVRVELEDPETGTRREYTFTLVLPFPGSAGGSA [r2_393_TrMRF] | 3.74 ± 0.051 kcal/mol | – | 3.41 ± 0.11 kcal/mol
35 | SAGGSAGGSAGGSPEVERERVKRELEEAGIPLESIEVSTEPVEPGREVHVTVNPPPELPSAGGSAGGSAGGS [r10_1122_JUSTAS] | 1.29 ± 0.14 kcal/mol | – | 0.616 ± 0.13 kcal/mol
36 | SAGGSAGGSAGGSMTKTTYDPSGYTDLPDLPPDHTITVTTTVDPSGPSTVTVTVTVTPPSAGGSAGGSAGGS [r10_1233_JUSTAS] | 1.6 ± 0.051 kcal/mol | – | 1.05 ± 0.09 kcal/mol
37 | SAGGSAGGSAGGSGSMVVEKVSPEPNVTKTIFFEPPEEGLVITVETLEGDTWSSQIILQSAGGSAGGSAGGS [r4_484_JUSTAS] | – | 0.657 ± 0.097 kcal/mol | -0.0129 ± 0.3 kcal/mol
38 | SAGGSAGGSASPDSVPVLVVESTYTTASVSTTPLGKPEYDTDSVVLKEEEIYVPPGELEELSAGGSAGGSAG [r3_121_JUSTAS] | – | 1.02 ± 0.086 kcal/mol | 0.198 ± 0.14 kcal/mol
39 | SAGGSAGGSAGGSAPDDPSAPPVLVFTVRYRLDADDAVVEFTARVAVLPDGVAVSFDPTSAGGSAGGSAGGS [r4_145_TrMRF] | 3.94 ± 0.045 kcal/mol | – | 3.48 ± 0.059 kcal/mol
40 | SAGGSAGGSAGMKVDLHLPSEEEARERAEELKEELKKAGAPEDEEVEITIRPVDPAELLLSAGGSAGGSAGG [r17_180_JUSTAS] | – | 1.24 ± 0.067 kcal/mol | 0.499 ± 0.16 kcal/mol
41 | ATLTTPLPDGSVVTIDYREAPGGPRVFTITVTLPDGTEVTIPVTVDLASHPDVAPEDIAAAAAAAAVAALAS [r1_92_JUSTAS] | 3.29 ± 0.059 kcal/mol | – | 2.95 ± 0.13 kcal/mol
42 | SAGGSAGGSPGDNVYWRVKIEHPNGNEMTFPFPFKGDPEEAEEFADGLAEWNPNMKVTIEPVPSAGGSAGGS [r12_268_TrROS] | 1.07 ± 0.095 kcal/mol | – | 0.535 ± 0.095 kcal/mol
43 | SAGGSAGGSAGGSPPVTELRVSGDNIVPPALVRLPDGSVLLYYPYGDELRLLVVPYGAASAGGSAGGSAGGS [r4_279_TrMRF] | 1.56 ± 0.039 kcal/mol | – | 0.776 ± 0.084 kcal/mol
44 | PILEKALEAAKKAIENGEKEVEITVKLEDGSEIKIKVKVEKKDGKIVKVEIEVEITNPNGEKITLTFTFEKS [r1_254_TrROS_Hall] | – | 1.98 ± 0.26 kcal/mol | > 6 kcal/mol
45 | SAGGSAGGSAGGSAPPPPPLTLEVSVLLPDGTVARARVTLNEDGELTVEVELVPLPEGLSAGGSAGGSAGGS [r4_248_TrROS_Hall] | 1.04 ± 0.07 kcal/mol | – | 0.638 ± 0.22 kcal/mol
46 | SAGMVLRADSLEEARALAEELGVPYVFGRDPDADVAFLLRFGDGELDPVVTVPLDDPAAVALLRALGAESAG [r5_458_JUSTAS] | 1.34 ± 0.18 kcal/mol | – | 0.689 ± 0.12 kcal/mol
47 | SAGGSAGGSAGGMPVVVINTPSEEEAEKEKAKLEEDPEYKDGPINFIYIPPGTLPENVPLSAGGSAGGSAGG [r7_976_JUSTAS] | – | 0.286 ± 0.072 kcal/mol | < -1 kcal/mol

Complete entries as entered above. Values in the order: folding stability dG unfold [1]	folding stability dG unfold [2]	folding stability dG unfold [3]
SAGGSAGGSAGMKVDLHLPSEEEARERAEELKEELKKAGAPEDEEVEITIRPVDPAELLLSAGGSAGGSAGG [r17_180_JUSTAS] as listed: –	1.24 ± 0.067 kcal/mol	0.499 ± 0.16 kcal/mol
SAGGSAGGSPGDNVYWRVKIEHPNGNEMTFPFPFKGDPEEAEEFADGLAEWNPNMKVTIEPVPSAGGSAGGS [r12_268_TrROS] as listed: 1.07 ± 0.095 kcal/mol	–	0.535 ± 0.095 kcal/mol
SAGGSAGGSASSSVTITNRVTNPDTGLRYITIPSKGERVTLSPDESATIPVPPDAPVSVLGSSAGGSAGGSA [r18_329_JUSTAS] as listed: –	-0.694 ± 0.24 kcal/mol	< -1 kcal/mol
